# Results of single-concentration screens

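Cell assay of Leishmania donovani living inside macrophages; the read-out is not stated. Tested at 30 µM. Higher reads as stronger inhibition (inferred: compounds with an IC50 in retests scored well above the rest). Size under these conditions: about 69,000 compounds, about 1,000 of them at 50% or above in at least one test.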

Values are the deposited “Percent Effect”, in %. The controls that fix the scale are not given in the record; negative values are as filed. Compounds were drawn at random from those tested, without regard to their results. Two or more numbers in one place are separate tests of the same structure; such repeats can differ widely.

* Cc1cccnc1CN(C)C(C(=O)O)c1ccc(-c2ccn[nH]2)cc1 (stereo not shown) : 22.75%
* [H][C@@]12C[C@H](C(=O)Nc3ccccc3)[C@@]([H])(CN(S(=O)(=O)c3ccccc3)C1)O2 : -9.243%
* O=C(CCCNc1ncccn1)N1CCCC(n2ccnc2)C1 (stereo not shown) : 27.66%
* Cc1nccn1-c1ccc(NC(=O)C2CCCN2Cc2ccoc2)cc1 (stereo not shown) : -19%
* CC(=O)N1CCc2c(nc(N(C)C)nc2NC(C)Cc2cccs2)C1 (stereo not shown) : 17.29%
* COC(=O)N1CCC(NC(=O)Cn2cc(C)c3ccccc32)CC1 : 0.2389%
* Cc1oc(-c2ccco2)nc1CC(=O)N1CCN(C2CCC2)CC1 : -7.678%
* Cc1sc2nc(C(F)(F)F)nc(N3CCN(S(C)(=O)=O)CC3)c2c1C : 31.13%
* c1ccc2nc(N3CCCCC3)c(NCc3nnc4n3CCC4)nc2c1 : 2.447%
* O=C(Cc1ccsc1)N1CCCC2(COCCN(CC3CC3)C2)C1.O=C(O)C(F)(F)F (stereo not shown) : 1.012%
* Cc1cc(C(=O)N2CCN(C)CC2)nn1CC(=O)NCc1cccs1.Cl : 1.973%
* CC(C)Nc1cccc(CNC(=O)N2CCC(N3CC=CC3)C2)c1 (stereo not shown) : 19.93%
* O=C(NCC(O)c1ccc(F)c(F)c1)c1cccnc1O (stereo not shown) : 8.56%
* O=C(Nc1ccc2occc2c1)N1CCCC(O)(CO)CC1 (stereo not shown) : 31.86%
* CC(C)C(=O)N1CCC(c2nc(O)cc(-c3ccncc3)n2)CC1 : 5.108%
* CCOc1cccc(C2CC(=O)NCc3nc(N)sc32)c1 (stereo not shown) : -158.4%
* FC(F)(F)Oc1ccc(-c2noc([C@@H]3Cc4nc[nH]c4CN3)n2)cc1 : -10.08%
* N#Cc1c(N2CCCCC2)nsc1-c1cccnc1 : -34.55%
* Cc1cccc(S(=O)(=O)N2CCC3(CC2)CC(N(C)C)CO3)c1 (stereo not shown) : 50.39%
* O=C(O)C(F)(F)F.[H][C@@]12CN(Cc3ccco3)CCC[C@]1(C(=O)OCC)CN(S(C)(=O)=O)C2 : 12.03%
* O=C(O)C(F)(F)F.[H][C@]12CO[C@H](CNC(=O)c3cscn3)[C@@]1([H])CCN(Cc1ccco1)C2 : -26.94%
* O=C(O)C(F)(F)F.[H][C@@]12CCN(C(C)C)C[C@]1([H])CN(C(=O)c1cccc(C)c1)C2 : -2.091%
* Nc1cc(-c2cccc3ccnn23)ccn1 : -3.495%
* CN1CCCC(N2CCN(c3nc4ccccn4c3C#N)CC2)C1 (stereo not shown) : -28.07%
* O=C(O)C(F)(F)F.O=C1CC(c2ccccc2)C2(CCN(CC3CC3)CC2)N1 (stereo not shown) : 17.34%
* CCN1CC(c2ccccc2)CC2(CCN(Cc3ncc[nH]3)CC2)C1 (stereo not shown) : 35.04%
* COc1cc(C)nc(N2CCN(C(=O)COC3CCCC3)CC2)n1 : 10.24%
* N#Cc1ccc(NCCc2n[nH]c(=O)[nH]2)cc1Cl : 5.981%
* O=C(O)C(F)(F)F.[H][C@@]12CN(C(=O)c3ccoc3C)C[C@]1([H])OCCN2c1ncccn1 : -0.4992%
* CSCc1nc(CNC(=O)c2cnn(C(C)C)c2)cs1 : -27.32%
* CCOc1ccc2c(c1)C=C(C(=O)NC(C)Cn1cccn1)CO2 (stereo not shown) : 3.326%
* COCC1(NC(=O)Nc2nc(C)ns2)CCCC1 : -2.202%
* Cc1nnc(SCc2cccc(F)c2)n1CC(N)=O : 20.05%
* COC1(CNC(=O)c2cccc(C#N)c2)CCSC1 (stereo not shown) : -10.4%
* CCN(C(=O)CN1CCn2c(nnc2C2CC2)C1)C1=CCCCC1 : 23.35% and -1.641%
* [H][C@@]12COC[C@]1(COc1nccc(C)n1)CN(C(=O)c1cnccn1)C2 : -6.734%
* [H][C@]12CC[C@]([H])(CN(S(=O)(=O)c3cn(C)cn3)C1)N(Cc1ccccn1)C2 : 16.76%
* CCN(CC1CN(CCc2ccccn2)CCO1)c1cccnn1 (stereo not shown) : 19.67%
* CC(O)CNC(=O)c1nc(Cc2c(Cl)cccc2Cl)no1 (stereo not shown) : -4.535%
* CCC1CCCN(C(=O)NCc2cccnc2-n2cccn2)C1 (stereo not shown) : -20.97%
* CS(=O)(=O)N1CCC2(CC1)NCCn1c(-c3ccccc3)cnc12.O=C(O)C(F)(F)F.O=C(O)C(F)(F)F : 6.219%
* Cc1cc(C)n(CCNC(=O)c2ncc[nH]2)c(=O)n1 : 35.03%
* Cc1cnn(CC2CN(CC(=O)N(C)Cc3ccsc3)CCO2)c1 (stereo not shown) : 33.41%
* COCC(=O)NC(C)Cc1cccc(Cl)c1 (stereo not shown) : 21.32%
* CC1CCCCN1CCNC(=O)c1ccccc1N1CCOCC1 (stereo not shown) : -34.05%
* O=C(c1ccsc1)N1CCc2nnc(COc3cncnc3)n2CC1 : -37.82%
* Cc1ccc(C)c(N2CCN(CC3(O)CCNC3)CC2)c1 (stereo not shown) : 98.99%
* Cc1cnc(C(=O)N2CCCCC2c2nc(C)cs2)cn1 (stereo not shown) : 11.34%
* [H][C@]12CC[C@@]3(N=C(c4ccccc4)NC3=O)[C@@]1([H])CN(Cc1ccncc1)C2 : 18.48%
* Cl.Cl.O=C(CN1CCN(CC(O)C2CC2)CC1)NCc1ccc(F)cc1 (stereo not shown) : 39.54%
* CCOC(C)c1nccn1Cc1noc(CC)n1 (stereo not shown) : 34.44%
* Cc1cc(CN2CCN(C(=O)CCc3cccs3)CC2)on1 : -4.647%
* O=C(c1cc(-c2cccs2)on1)N1CCCCC1Cn1cccn1 (stereo not shown) : 7.768%
* COc1cc(OC)cc(C(=O)NCCCNc2ncccn2)c1 : 29.73%
* C1CCC(NCCN2CCOCC2)C1 : -0.5532%
* NCC1Cc2cc(-c3cncc(C(=O)N4CCOCC4)n3)cc(Cl)c2O1 (stereo not shown) : 7.347%

For reference, 5 entries once more:

compound	effect
[H][C@]12CC[C@@]3(N=C(c4ccccc4)NC3=O)[C@@]1([H])CN(Cc1ccncc1)C2	18.48
CC(C)Nc1cccc(CNC(=O)N2CCC(N3CC=CC3)C2)c1 (stereo not shown)	19.93
Cc1cccc(S(=O)(=O)N2CCC3(CC2)CC(N(C)C)CO3)c1 (stereo not shown)	50.39
COc1cc(C)nc(N2CCN(C(=O)COC3CCCC3)CC2)n1	10.24
FC(F)(F)Oc1ccc(-c2noc([C@@H]3Cc4nc[nH]c4CN3)n2)cc1	-10.08

Source: ChEMBL document CHEMBL3988442, “University of Dundee, Small-Polar-MMV Screening Library” (2021).